Laboratory results taken from patent publication US5314690A, “Method and composition for treating IgE-mediated allergies” (Northwestern University, priority 1992, dated 1994).
Part of at least one peptide drawing is inferred or uncertain, most often the ends.

Key:
[1] = system: IgE antibody to Ascaris; assay: Cutaneous reactivity: endpoint cutaneous titer to Ascaris antigen in allergic rhesus monkeys; format: in vivo, rhesus monkeys (Macaca mulatta); conditions: for Variation in skin titers After SP* (logs), decrease: cutaneous titers done in August-September 1990
[2] = system: rhesus monkeys with IgE mediated reactivity to Ascaris antigen; assay: Airway response (pulmonary function parameters) to aerosol challenge in allergic rhesus monkeys; format: in vivo, rhesus monkeys (Macaca mulatta); set-up: key to Airway response to aerosol stimulus SP / Airway response to Ascaris antigen (A) challenge after SP / Airway challenge with A, dilution and response, after SP / Airway response to SP aerosol given after Ascaris antigen (A): Pos: A positive response was defined as a response showing abnormalities in four of the five parameters greater than the following: f+20%, RL +25%, Cdyn-20%, PEFR -25%, and VT -15%; conditions: for Airway response to SP aerosol given after Ascaris antigen (A): SP at 10 minutes post Ascaris antigen challenge (A response Pos)

CSCC[C@H](NC(=O)[C@H](CC(C)C)NC(=O)CNC(=O)[C@H](Cc1ccccc1)NC(=O)[C@H](Cc1ccccc1)NC(=O)[C@H](CCC(N)=O)NC(=O)[C@H](CCC(N)=O)NC(=O)[C@@H]1CCCN1C(=O)[C@H](CCCCN)NC(=O)[C@@H]1CCCN1C(=O)[C@@H](N)CCCNC(=N)N)C(N)=O [substance P, Arg-Pro-Lys-Pro-Gln-Gln-Phe-Phe-Gly-Leu-Met-NH2]
Variation in logs after SP as of 3/21/91, decrease ([1]; monkey 88): 3 logs | Variation in skin titers After SP* (logs), decrease ([1]; monkey 88): 4 logs | Variation in logs after SP as of 3/21/91, decrease ([1]; monkey 90): 7 logs | Variation in skin titers After SP* (logs), decrease ([1]; monkey 90): 6 logs | Variation in logs after SP as of 3/21/91, decrease ([1]; monkey 95): 5 logs | Variation in skin titers After SP* (logs), decrease ([1]; monkey 95): 6 logs | Variation in logs after SP as of 3/21/91, decrease ([1]; monkey 97): 5 logs | Variation in skin titers After SP* (logs), decrease ([1]; monkey 97): 8 logs | Variation in logs after SP as of 3/21/91, decrease ([1]; monkey 98): 8 logs | Variation in skin titers After SP* (logs), decrease ([1]; monkey 98): 8 logs | Variation in logs after SP as of 3/21/91, decrease ([1]; monkey 448): 4 logs | Variation in skin titers After SP* (logs), decrease ([1]; monkey 448): 4 logs | Variation in logs after SP as of 3/21/91, decrease ([1]; monkey 612): 1 logs | Variation in skin titers After SP* (logs), decrease ([1]; monkey 612): 1 logs | Level of IgE antibody ([1]; seven rhesus monkeys given aerosolized substance P and allergen (Ascaris antigen)): declined in seven of seven monkeys, and dramatically in six of the seven monkeys | TOTALS: final decrease in cutaneous titers after SP as of 3/21/91 ([1]; sum of all seven monkeys): 33 logs | TOTALS: decrease in cutaneous titers After SP ([1]; sum of all seven monkeys, August-September 1990, total of 10 years studied, before SP cumulative variation one log over 52 years): 37 logs | Airway response to SP aerosol given after Ascaris antigen (A) ([2]; monkey 88, month 1 1988): Pos | Airway response to Ascaris antigen (A) challenge after SP ([2]; monkey 88, month 5 1988, A 10 minutes post SP): Neg | Airway response to SP aerosol given after Ascaris antigen (A) ([2]; monkey 88, month 5 1988): Pos | Airway response to aerosol stimulus SP ([2]; monkey 88, month 5 1988, SP first, then A): Pos | Airway response to Ascaris antigen (A) challenge after SP ([2]; monkey 88, month 6 1988, A 10 minutes post SP): Pos | Airway response to aerosol stimulus SP ([2]; monkey 88, month 6 1988, SP first, then A): Pos | Airway response to aerosol stimulus SP ([2]; monkey 90, month 2 1988): Pos | Airway response to Ascaris antigen (A) challenge after SP ([2]; monkey 90, month 2 1988, A 1:50, 10 minutes after SP aerosol): Pos | Airway response to aerosol stimulus SP ([2]; monkey 90, month 11 1987): Neg | Airway response to Ascaris antigen (A) challenge after SP ([2]; monkey 90, month 11 1987, A 1:50, 10 minutes after SP aerosol): Pos | Airway response to aerosol stimulus SP ([2]; monkey 95, month 5 1988): Neg | Airway challenge with A, dilution and response, after SP ([2]; monkey 95, month 5 1988, A dilution 1:5, 10 minutes after SP aerosol): Pos | Airway response to aerosol stimulus SP ([2]; monkey 95, month 6 1989): Neg | Airway challenge with A, dilution and response, after SP ([2]; monkey 95, month 6 1989, A dilution 1:25, 10 minutes after SP aerosol): Pos | Airway response to aerosol stimulus SP ([2]; monkey 95, month 8 1990): Neg | Airway challenge with A, dilution and response, after SP ([2]; monkey 95, month 8 1990, A dilution 1:25, 10 minutes after SP aerosol): Pos | Airway response to aerosol stimulus SP ([2]; monkey 95, month 9 1989): Neg | Airway challenge with A, dilution and response, after SP ([2]; monkey 95, month 9 1989, A dilution 1:25, 10 minutes after SP aerosol): Pos | Airway response to aerosol stimulus SP ([2]; monkey 97, month 2 1988): Neg | Airway response to aerosol stimulus SP ([2]; monkey 97, month 5 1988): Neg | Airway response to aerosol stimulus SP ([2]; monkey 97, month 6 1989): Neg | Airway response to aerosol stimulus SP ([2]; monkey 97, month 7 1990): Neg | Airway response to aerosol stimulus SP ([2]; monkey 97, month 8 1990): Neg | Airway challenge with A, response, after SP ([2]; monkey 97, month 8 1990, A 10 minutes after SP aerosol): Neg | Airway response to aerosol stimulus SP ([2]; monkey 97, month 12 1987): Pos | Airway response to aerosol stimulus SP ([2]; monkey 98, month 6 1989): Neg | Airway challenge with A, dilution and response, after SP ([2]; monkey 98, month 6 1989, A dilution 1:25, 10 minutes after SP aerosol): Neg | Airway response to aerosol stimulus SP ([2]; monkey 98, month 7 1990): Neg | Airway challenge with A, dilution and response, after SP ([2]; monkey 98, month 7 1990, A dilution 1:25, 10 minutes after SP aerosol): Pos | Airway response to aerosol stimulus SP ([2]; monkey 98, month 9 1989): Neg | Airway challenge with A, dilution and response, after SP ([2]; monkey 98, month 9 1989, A dilution 1:25, 10 minutes after SP aerosol): Pos | Airway response to aerosol stimulus SP ([2]; monkey 448, month 6 1989): Pos | Airway response to Ascaris antigen (A) challenge after SP ([2]; monkey 448, month 6 1989, A 1.5, 10 minutes after SP aerosol): Pos | Airway response to aerosol stimulus SP ([2]; monkey 448, month 7 1989): Neg | Airway response to Ascaris antigen (A) challenge after SP ([2]; monkey 448, month 7 1989, A 1.5, 10 minutes after SP aerosol): Pos | Airway response to aerosol stimulus SP ([2]; monkey 448, month 7 1990): Neg | Airway response to Ascaris antigen (A) challenge after SP ([2]; monkey 448, month 7 1990, A 1.5, 10 minutes after SP aerosol): Neg | Airway response to aerosol stimulus SP ([2]; monkey 448, month 8 1990): Neg | Airway response to Ascaris antigen (A) challenge after SP ([2]; monkey 448, month 8 1990, A 1.5, 10 minutes after SP aerosol): Neg | Airway response to aerosol stimulus SP ([2]; monkey 612, month 6 1989): Neg | Airway response to Ascaris antigen (A) challenge after SP ([2]; monkey 612, month 6 1989, A 1.5, 10 minutes after SP aerosol): Pos | Airway response to aerosol stimulus SP ([2]; monkey 612, month 7 1989): Neg | Airway response to Ascaris antigen (A) challenge after SP ([2]; monkey 612, month 7 1989, A 1.5, 10 minutes after SP aerosol): Pos | Airway response to aerosol stimulus SP ([2]; monkey 612, month 7 1990): Neg | Airway response to Ascaris antigen (A) challenge after SP ([2]; monkey 612, month 7 1990, A 1.5, 10 minutes after SP aerosol): Neg | Airway response to aerosol stimulus SP ([2]; monkey 612, month 8 1990): Neg | Airway response to Ascaris antigen (A) challenge after SP ([2]; monkey 612, month 8 1990, A 1.5, 10 minutes after SP aerosol): Neg | Airway response to Ascaris ([2]; substance P given just prior to Ascaris allergen challenge): increased the airway response to Ascaris | Duration of the increase of the airway response to Ascaris ([2]; transient, disappearing spontaneously): ≤ 12 months
